Among all 340,000 compounds or so, about 6,200 (1.8%) were called active. This list was built around the results that the source calls inconclusive (neither active nor inactive); the mix of calls is not that of the screen. Calls come from the whole dose curve; as a rule, active = well fitted activation curve with a large enough effect; inconclusive = small, poorly fitted or top-dose-only effect; inactive = no such curve, though single readings can be large or run the other way. Potencies of inconclusive entries are doubtful fits and often do not repeat.
Test: A quantitative high throughput screen for small molecules that induce DNA re-replication in SW480 colon adenocarcinoma cells. For re-replication activation: % of control where 0% means no effect. Note: nearly all actives have a fitted effect of over 55% in size.
Conditions: Hoechst DNA content imaging, 48 h; re-replication activation: at 46.1 µM (top of the series) unless noted
Outline: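 Hoechst fluorescence of nuclei (405 nm excitation, 500-530 nm emission) measured by plate-scanning imager after 48 hr compound exposure at 37 C; re-replication scored as increased number of nuclei with elevated intensity.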
Potency is the fitted concentration of half-maximal effect.

Row | Compound | Potency | re-replication activation
1 | O=C1C(Cl)=C(NCCCN2CCOCC2)C(=O)c2ccccc21 | inconclusive: 29.1 µM [activator, single point] | –
2 | C[C@]12c3[nH]c4cc(-c5ccco5)ccc4c3CCN1C(=O)[C@@H](CC(=O)NCCC1=CCCCC1)C[C@@H]2C(=O)N1CCOCC1 | inconclusive: 18.4 µM [activator, partial curve, poor fit] | –
3 | COc1ccc(N2C(=O)CSC23C(=O)Nc2ccccc23)cc1OC (stereo unspecified) | inactive | –
4 | COc1cc(-c2cc(O)c(-c3ccc4ccccc4n3)c(=O)[nH]2)cc(OC)c1OC | active: 20.6 µM | –
5 | COc1ccccc1/C=C/C(=O)c1ccccc1 | inconclusive: 20.6 µM [activator, partial curve, poor fit] | –
6 | CC(C)Cc1ccc(C(C)/C=C2/CCC(CN3CCCCC3)C2=O)cc1 (stereo unspecified) | inconclusive: 16.4 µM [activator, single point] | –
7 | CCCCCN(C(=O)CCC(=O)OCC(=O)NCc1cccc(OC)c1)c1c(N)n(CCCC)c(=O)[nH]c1=O | inactive | –
8 | COc1ccc(C(=O)/C(=C/O)N=Nc2ccc(F)cc2)cc1 | inconclusive: 29.1 µM [activator, single point] | –
9 | COc1ccc(C(C)=NNc2ccc([N+](=O)[O-])cc2S(=O)(=O)Nc2ccccc2C(=O)O)c(OC)c1 | inconclusive: 23.1 µM [activator, single point] | –
10 | O=C(Nc1ccc2c(c1)OCO2)C1CCN(C(=O)CSc2ncnc3ccccc23)CC1 | inconclusive: 29.1 µM [activator, single point] | –
11 | Cc1ccc(NCCC(=O)c2cccs2)cc1C | inconclusive: 29.1 µM [activator, single point] | –
12 | CCOc1ccc(S(=O)(=O)NCCC(=O)N2CCN(Cc3ccccc3)CC2)cc1 | inactive | –
13 | C/C(=N\NC(=O)C(=O)Nc1ccc(C)c(Cl)c1)c1ccncc1 | inactive | –
14 | N#Cc1ccc(C23CC4(C2)[C@H](CN(CC2CCCCC2)[C@@H]4c2ccccc2)C3c2ccc(Cl)nc2)cc1 (stereo partly specified) | inactive | –
15 | CC(/C=N/NC(=O)c1ccccn1)=C\c1ccco1 | inconclusive: 20.6 µM [activator, single point] | –
16 | Clc1ccc(-n2ncc3c(NCc4ccc5c(c4)OCO5)ncnc32)cc1 | inconclusive: 18.4 µM [activator, single point] | –
17 | CCN(CC)CCNC(=O)c1ccc(NC(=O)c2ccc(COc3ccccc3)cc2)cc1 | inconclusive: 25.9 µM [activator, single point] | –
18 | Cc1ccc(OC(C)C(=O)OCC(=O)Nc2sccc2C(N)=O)cc1 (stereo unspecified) | inconclusive: 0.0461 µM [activator, full curve, poor fit] | –
19 | CC1Cc2ccccc2N1C(=O)CO/N=C/c1ccc(OC(F)F)cc1 (stereo unspecified) | inconclusive: 20.6 µM [activator, partial curve, poor fit] | –
20 | CC(=O)c1ccc(-n2c(C)ccc2-c2ccccc2)cc1 | inconclusive: 20.6 µM [activator, single point] | –
21 | COc1ccc(OC)c(C2=NS(=O)(=O)N(C)C(C(=O)Nc3cccc(C(C)=O)c3)=C2)c1 | inconclusive: 8.2 µM [activator, partial curve] | –
22 | COc1cccc(CNC(=O)COC(=O)c2ccc(C(=O)c3ccccc3)cc2)c1 | inactive | –
23 | COc1ccc(N(CC(=O)NCc2ccccc2Cl)S(=O)(=O)c2c(C)noc2C)cc1 | inconclusive: 0.146 µM [activator, full curve, poor fit] | –
24 | CCCCCc1nnc(NC(=O)CN2C(=O)C3CCCCC3C2=O)s1 (stereo unspecified) | inactive | –

Row | Compound | Potency | re-replication activation
25 | Cc1c(C(=O)N2CCN(S(=O)(=O)c3cccs3)CC2)oc2ccc(F)cc12 | inactive | –
26 | C=CCN(Cc1ccc(Cl)s1)C(=O)CNC(=O)CNC(=O)c1ccc(Cl)cc1Cl | inconclusive: 29.1 µM [activator, single point] | –
27 | N#Cc1c(-c2ccccc2)c(-c2ccccc2)nn(CC(=O)NNC(=O)Nc2ccccc2)c1=O | active: 2.91 µM | –
28 | COCCNC(=O)CC(NS(=O)(=O)c1ccc(NC(C)=O)cc1)C(C)C (stereo unspecified) | inactive | –
29 | CCOc1nc(-c2ccccc2)ncc1Oc1ccccc1 | inconclusive: 29.1 µM [activator, single point] | –
30 | O=C(Nc1ccc(Cl)cn1)c1ccc2nccnc2c1 | inconclusive: 29.1 µM [activator, single point] | –
31 | CC(C)c1ccc(C2(C)NC(=O)N(C(C)C(=O)Nc3ccc(N4CCOCC4)cc3)C2=O)cc1 (stereo unspecified) | active: 6.51 µM | –
32 | Nc1ncc(Br)cc1S(=O)(=O)NC1CCCCC1 | inconclusive: 29.1 µM [activator, single point] | –
33 | Cc1ccc(OC(=O)c2cccc(S(=O)(=O)N(C)C)c2)c(-n2nc3ccccc3n2)c1 | inactive | –
34 | CN1CCN(C(=O)CCN2C(=O)/C(=C\c3ccccc3F)SC2=S)CC1 | inconclusive: 23.1 µM [activator, single point] | –
35 | O=C(NCCCn1ccnc1)c1ccc2nccnc2c1 | inconclusive: 29.1 µM [activator, single point] | –
36 | O=C(COC(=O)c1ncc(Cl)c(Cl)c1Cl)Nc1cccnc1Cl | inactive | –
37 | CCC(C)(C)C1CCC2(CC1)NC(=O)N(CC(=O)Nc1nc(-c3ccc(C)cc3)cs1)C2=O (stereo unspecified) | inconclusive: 29.1 µM [activator, single point] | –
38 | COc1ccc(/C=N/OC(=O)Nc2ccccc2OC)cc1 | inconclusive: 20.6 µM [activator, single point] | –
39 | O=C(CCS(=O)(=O)c1ccc(Cl)cc1)Nc1nc(-c2cccnc2)cs1 | inconclusive: 6.51 µM [activator, single point] | –
40 | COC(=O)CCCC1=CC2=C(c3ccccc3)C(=O)C(C)(OC(=O)C3CCCC3)C(=O)C2=CN1C1CCCC1 (stereo unspecified) | inconclusive: 6.51 µM [activator, single point] | –
41 | O=C(CCn1[nH]c(=O)c2ccccc2c1=O)OC1CCCCC1 | inconclusive: 6.51 µM [activator, single point] | –
42 | O=c1c2ccccc2sn1-c1ccccc1 | active: 11.6 µM | –
43 | CCOC(=O)c1cnc2ccc(C(=O)OC)cc2c1Nc1ccc(C(=O)O)cc1 | inconclusive: 16.4 µM [activator, single point] | –
44 | COc1cc(C(=O)NCCc2ccc(S(N)(=O)=O)cc2)ccc1OCc1c(C)noc1C | inactive | –
45 | CCCc1c(NC(=O)Nc2ccc(Cl)cc2Cl)cnn1-c1ccccc1 | active: 14.6 µM | –
46 | CC(C)c1ccc(NC(=S)NN2CCN(C)CC2)cc1 | inactive | –
47 | O=[N+]([O-])c1ccc2c(c1)C(=NO)c1cc(Cl)c(Cl)cc1-2 | inactive | –
48 | Cn1cc(CN2CCN(c3ncccn3)CC2)c(-c2cccc(Cl)c2)n1 | inactive | –

Row | Compound | Potency | re-replication activation
49 | CCOC(=O)C1CCN(C(=O)c2cc(CN3C(=O)c4ccccc4C3=O)ccc2OCC)CC1 | inconclusive: 29.1 µM [activator, single point] | –
50 | O=c1[nH]c(NCc2ccccc2)nc2c1CCC2 | inactive | –
51 | CCCC(=Nc1ccc(N)cc1)C1=C(O)C(C(=O)OC)C(C)(C)CC1=O (stereo unspecified) | inconclusive: 16.4 µM [activator, single point] | –
52 | CC1CCc2c(sc3nc(C(C)(C)C)nc(N4CCN(C(=O)CCl)CC4)c23)C1 (stereo unspecified) | active: 5.17 µM | –
53 | Cc1ccc2[nH]c(CCN(C)C)c(CN3CCOCC3)c2c1 | inconclusive: 29.1 µM [activator, single point] | –
54 | O=C(OCC(=O)N1CCN(c2ccccc2)CC1)c1ncc(Cl)c(Cl)c1Cl | inactive | –
55 | COCCN=C1Sc2nc3ccc(C)cc3cc2CN1Cc1cccs1 | inactive | –
56 | O=C(/C=C/c1ccc(S(=O)(=O)N2CCOCC2)cc1)Nc1ccc(F)c(F)c1F | inactive | –
57 | CCOc1ccc(-n2c(=S)sc3c(=O)n(-c4ccccc4)c(SCC(=O)O)nc32)cc1 | inconclusive: 0.0052 µM [activator, full curve, poor fit] | –
58 | O=C(c1ccc(S(=O)(=O)c2ccccc2Cl)c([N+](=O)[O-])c1)N1CCN(Cc2ccccc2)CC1 | active: 20.6 µM | –
59 | COc1cc(OC)cc(C(=O)OCC(=O)N(C)c2ccccc2)c1 | inactive | –
60 | NC(=O)c1ccccc1N=Cc1ccc2ccccc2c1 | inconclusive: 18.4 µM [activator, single point] | –
61 | O=C(Nc1cccc(S(=O)(=O)N2CCCCC2)c1)Nc1ccc(Cl)cc1Cl | inconclusive: 32.6 µM [activator, single point] | –
62 | O=C(Nc1ccc(S(=O)(=O)N2CCOCC2)cc1)C1CC(=O)N(c2ccc(F)cc2)C1 (stereo unspecified) | inconclusive: 6.51 µM [activator, full curve, poor fit] | –
63 | CC(=O)c1ccccc1NC(=O)COC(=O)/C(=C/c1ccccc1)n1nnnc1C | inconclusive: 29.1 µM [activator, single point] | –
64 | C[n+]1cccc(/C=N/Nc2nc(Cl)c(C#N)c(Cl)c2Cl)c1 | inactive | –
65 | CS(=O)(=O)Nc1ccc2c(c1)OCC(=O)N2Cc1ccccc1 | inconclusive: 0.103 µM [activator, full curve, poor fit] | –
66 | Cc1ccc(NC(=S)N2CCN(c3ncccn3)CC2)c(C)c1 | inactive | –
67 | O=C(CC(=O)Nc1cccc(Cl)c1)N/N=C\c1ccccc1 | – | inconclusive: 38.6% [activator]
68 | CCOC(=O)N/N=C\c1ccc(OC/C=C/c2ccccc2)cc1 | inconclusive: 20.6 µM [activator, partial curve, poor fit] | –
69 | O=C(NNC1OC(CO)C(O)C(O)C1O)c1cccc(Br)c1 (stereo unspecified) | inactive | –
70 | COc1ccc(-c2ccc(CCC(=O)O)n2-c2ccccc2OC)cc1 | active: 18.4 µM | –
71 | C(=C\c1nc(N2CCCCCC2)c2ccccc2n1)/c1ccccc1 | inconclusive: 29.1 µM [activator, single point] | –

Filtered by structure, the compounds so far with an aryl methoxy group.
Row | Compound | Potency | re-replication activation
3 | COc1ccc(N2C(=O)CSC23C(=O)Nc2ccccc23)cc1OC (stereo unspecified) | inactive | –
4 | COc1cc(-c2cc(O)c(-c3ccc4ccccc4n3)c(=O)[nH]2)cc(OC)c1OC | active: 20.6 µM | –
5 | COc1ccccc1/C=C/C(=O)c1ccccc1 | inconclusive: 20.6 µM [activator, partial curve, poor fit] | –
7 | CCCCCN(C(=O)CCC(=O)OCC(=O)NCc1cccc(OC)c1)c1c(N)n(CCCC)c(=O)[nH]c1=O | inactive | –
8 | COc1ccc(C(=O)/C(=C/O)N=Nc2ccc(F)cc2)cc1 | inconclusive: 29.1 µM [activator, single point] | –
9 | COc1ccc(C(C)=NNc2ccc([N+](=O)[O-])cc2S(=O)(=O)Nc2ccccc2C(=O)O)c(OC)c1 | inconclusive: 23.1 µM [activator, single point] | –
21 | COc1ccc(OC)c(C2=NS(=O)(=O)N(C)C(C(=O)Nc3cccc(C(C)=O)c3)=C2)c1 | inconclusive: 8.2 µM [activator, partial curve] | –
22 | COc1cccc(CNC(=O)COC(=O)c2ccc(C(=O)c3ccccc3)cc2)c1 | inactive | –
23 | COc1ccc(N(CC(=O)NCc2ccccc2Cl)S(=O)(=O)c2c(C)noc2C)cc1 | inconclusive: 0.146 µM [activator, full curve, poor fit] | –
38 | COc1ccc(/C=N/OC(=O)Nc2ccccc2OC)cc1 | inconclusive: 20.6 µM [activator, single point] | –
44 | COc1cc(C(=O)NCCc2ccc(S(N)(=O)=O)cc2)ccc1OCc1c(C)noc1C | inactive | –
59 | COc1cc(OC)cc(C(=O)OCC(=O)N(C)c2ccccc2)c1 | inactive | –
70 | COc1ccc(-c2ccc(CCC(=O)O)n2-c2ccccc2OC)cc1 | active: 18.4 µM | –

In the list so far, these contain an aryl thioether with sulfur outside any ring.
Row | Compound | Potency | re-replication activation
10 | O=C(Nc1ccc2c(c1)OCO2)C1CCN(C(=O)CSc2ncnc3ccccc23)CC1 | inconclusive: 29.1 µM [activator, single point] | –
57 | CCOc1ccc(-n2c(=S)sc3c(=O)n(-c4ccccc4)c(SCC(=O)O)nc32)cc1 | inconclusive: 0.0052 µM [activator, full curve, poor fit] | –
